Measurements as given in publication PMC12040169 (PLOS Biology, 2025).
This is one part of the list.

System: T1, CTL2-GFP (C. trachomatis L2/434/Bu, GFP-expressing)
T1 construct: L2/434/Bu, GFP-expressing
Design: species or system HeLa; Intracellular C. trachomatis growth in HeLa cells, bulk GFP fluorescence relative to DMSO
Conditions: bulk GFP, single well; 28.5 h, 10 µM; inhibitor

SMILES	% of control remaining [%]
c1ccc(-c2nc(C3CCNCC3)n3ccncc23)cc1 [CBK035434]	153.713
Cc1cc(NS(=O)(=O)c2cccc(C(F)(F)F)c2)n(C)n1 [CBK067244]	111.074
COc1cc(Cl)cc(C2NC(=S)NC(c3ccccc3)=C2C(=O)c2ccccc2)c1OCC(=O)O (stereo not shown) [CBK266332]	112.365
N#Cc1ccccc1NC(=O)CN1CCCCCC1 [CBK270088]	150.758
COC(=O)c1ccc(CSc2nnc(-n3sc4ccccc4c3=O)s2)cc1 [CBK116502]	102.277
Cc1ccc(/C=C(\NC(=O)c2ccccc2)C(=O)N2CCCC2C(=O)O)cc1 (stereo not shown) [CBK265649]	100
Cc1ccc(C(CC(=O)N2CCN(Cc3ccccc3)CC2)c2ccccc2)c(O)c1C (stereo not shown) [CBK262214]	120.583
c1ccc(-c2nnc3ccccc3c2NCCCN2CCOCC2)cc1 [CBK066892]	118.195
CCCC(=O)NC(c1ccc(OC)c(OC)c1)c1c(O)ccc2ccccc12 (stereo not shown) [CBK263269]	98.0687
Cc1cccc(CN2CCCC[C@H]3CN(C(=O)c4cccs4)C[C@H]32)c1 [CBK285530]	103.861
CCOc1cc(S(=O)(=O)NCCCN2CCOCC2)ccc1Br [CBK270111]	102.527
COc1ccc(CN2CCC(O)CC2)c(OC)c1 [CBK261522]	101.173
O=C(Nc1ccccc1N1CCCNCC1)c1ccc2ccccc2c1 [CBK038927T]	6.569
Cc1cc2n(n1)[C@@H](C(F)F)C[C@@H](C1CCCN(C(=O)C(C)C)C1)N2 (stereo partly shown) [CBK284722]	91.0863
Fc1cccc(-c2nc3cnccn3c2NCc2ccco2)c1 [CBK282323]	122.522
Cc1cc(NC(=O)c2ccc3ccccc3c2)nc2c1c(=O)oc1ccccc12 [CBK291122]	101.797
O=C1/C(=C/c2ccc(OCc3cccc4ccccc34)cc2)SC(=S)N1Cc1cccnc1 [CBK264669]	96.5733
O=S(=O)(Nc1ccc2[nH]ccc2c1)c1cccnc1 [CBK156811]	149.778
CCC(=O)NCCc1c[nH]c2ccc([N+](=O)[O-])cc12 [CBK088059]	104.566
CC(=O)Oc1ccc(-c2cccc(C(=O)NCCO)c2)cc1 [CBK263829]	86.3545
CN(C)CCNCc1cccc(OCc2ccccc2)c1 [CBK278216C]	135.875
COc1ccc(-c2nnc(NC(=O)C3CCCCC3)o2)cc1 [CBK287592]	100.162
COc1ccc(C2CNC(=O)N2C(=O)OC(C)(C)C)cc1OC1CCCC1 (stereo not shown) [CBK007281]	144.694
CCn1cc(CN(C)Cc2csc(C)n2)c2cc(C(=O)O)ncc21 [CBK306950]	78.4806
Cn1c(=O)[nH]c(=O)c2c(-c3ccccc3)ccnc21 [CBK288136]	102.642
O=C(CCCn1ccnc1)N1CCCC(c2cc3cccnc3[nH]2)C1 (stereo not shown) [CBK284959]	115.415
CN(C)c1cccc(Nc2ncc(-c3ccc(N4CCOCC4)cc3)n3ccnc23)c1 [CBK091222]	107.882

SMILES	% of control remaining [%]
Cc1cc(C(F)F)n2nc(C(=O)NCc3ccccc3F)nc2n1 [CBK266228]	149.401
COc1ccc(CN2C(=S)N(c3ccc(OC)cc3)[C@H]3[C@@H]2[C@H]2OC(=O)[C@@H]3C[C@H]2O)cc1 [CBK288934]	124.733
Cc1ccc2oc(-c3ccc(C)c(NC(=O)c4cc([N+](=O)[O-])ccc4Cl)c3)nc2c1 [CBK263055]	101.741
C=CCNC(=O)N[C@H]1CO[C@H]2[C@@H]1OC[C@H]2OC(=O)Nc1ccccc1 [CBK289466]	107.705
O=C(/C=C/c1ccco1)NC(=S)Nc1ccc(O)c(-c2nc3ccccc3s2)c1 [CBK264344]	116.475
CSCCN1CCC(Oc2nccnc2OCC2COc3ccccc3O2)CC1 (stereo not shown) [CBK082996T]	118.452
Cc1ccc(Cn2nc(NC(=O)c3cccn3C)c3ccccc32)cc1 [CBK048214]	112.815
O=C(N/N=C/c1ccncc1)C1CC1C(=O)N/N=C/c1ccncc1 (stereo not shown) [CBK261115]	94.483
CC(C)c1nccn1CC(=O)N(C)C(C)c1ccc(F)c(F)c1 (stereo not shown) [CBK306443]	137.199
COc1ccccc1-c1ccc(NC(=O)C2(c3cccc(F)c3)CCOCC2)cc1 [CBK285747]	132.204
O=C(CSCCO)Nc1ccc(Oc2ccccc2)cc1 [CBK269167]	124.921
[N-]=[N+]=Nc1nc2c(N)ncnc2n1C1CC(O)C(CO)O1 (stereo not shown) [CBK201178]	159.896
O=C1COCC(=O)N1c1ccc(I)cc1 [CBK086499]	161.229
CN1CCN(c2nc(-c3ccoc3)cn3ccnc23)CC1 [CBK066645]	121.429
Cc1ccccc1SCC(C)C(=O)O (stereo not shown) [CBK012292]	140.23
c1ccc2oc(CN3Cc4nc[nH]c4C[C@H]3c3nc(-c4cnccn4)no3)cc2c1 [CBK288954]	109.216
Cc1cc(OCC(O)CN(Cc2ccccc2)C(C)(C)C)ccc1[N+](=O)[O-] (stereo not shown) [CBK086757]	109.317
COC(=O)c1c(NC(=O)C(=O)NCc2cccnc2)sc2c1CCCC2 [CBK269170]	143.596
CC(=O)NC(CC(=O)N1CCCC(n2cccn2)C1)c1cccs1 (stereo not shown) [CBK305405]	86.4523
COC1C(O)C(CO)OC1n1cnc2c(=O)[nH]cnc21 (stereo not shown) [CBK201328]	138.88
Cc1noc(N)c1C1OC(=O)c2ccccc21 (stereo not shown) [CBK022932]	91.4687
CC(CCCC(C)(C)O)Nc1cc(N2CCN(C)CC2)n2nccc2n1 (stereo not shown) [CBK037103]	91.7299
COc1ccc(C(C)C)cc1-c1cncc(NCCc2ccccn2)n1 [CBK065325]	193.747
COc1cc([N+](=O)[O-])ccc1-c1ccc(/C=c2\sc3nc4cc(Br)cnc4n3c2=O)o1 [CBK262579]	101.502
Cc1cc(C(=O)N2CCN(C(=O)c3cn(Cc4ccc(S(C)(=O)=O)cc4)nn3)CC2)n(C)n1 [CBK160824T]	119.654
CC1CN(c2ccccc2Br)NC1=O (stereo not shown) [CBK026500]	133.053
Cc1cc(C)n(CC(C)NC(=O)N2CCC(Oc3cccnc3)C2)n1 (stereo not shown) [CBK305342]	129.825

Ordered by SMILES length (ascending): part of the list above.
SMILES	% of control remaining [%]
Cc1cc(NC(=O)c2ccc3ccccc3c2)nc2c1c(=O)oc1ccccc12 [CBK291122]	101.797
c1ccc2oc(CN3Cc4nc[nH]c4C[C@H]3c3nc(-c4cnccn4)no3)cc2c1 [CBK288954]	109.216
COc1cc(Cl)cc(C2NC(=S)NC(c3ccccc3)=C2C(=O)c2ccccc2)c1OCC(=O)O (stereo not shown) [CBK266332]	112.365

Continued.

SMILES	% of control remaining [%]
COc1cc(C2Nc3ccccc3-c3nc(SC)nnc3O2)ccc1OCC(=O)O (stereo not shown) [CBK262687]	100
O=C(CN1C(=O)c2ccccc2C1=O)Nc1nc(-c2ccccc2)cs1 [CBK287343]	128.728
Cc1ccc(S(=O)(=O)Nc2ccnc(-c3ccc(CO)cc3)n2)cc1 [CBK067477]	106.959
COc1ccc2[nH]c3c(c2c1)CCNC31CCN(Cc2ccccc2)C1 (stereo not shown) [CBK073952C]	78.4699
O=C(CNS(=O)(=O)c1cc(F)c(Br)cc1F)N1CCOCC1 [CBK042216]	105.722
CC(=O)c1ccc(-c2cnc3[nH]c(=O)n([C@@H](C)c4ccccc4)c3n2)s1 [CBK064360]	159.389
Cn1cc(CCNC(=O)NC2CCN(Cc3ccccn3)CC2)cn1 [CBK305297]	119.681
CC1=C[C@@H](CC#N)[C@H](C(C)C)C[C@H]1CC(=O)Nc1ccccn1 [CBK289215]	109.18
Cc1nc(SCc2ccccc2)nc(O)c1CC(=O)O [CBK264203]	100
O=C(NCC(O)c1ccc(O)cc1)c1cnc(-c2ccc(Cl)cc2)c(-c2cccnc2)c1 (stereo not shown) [CBK036656]	209.266
O=C1c2cccc3cccc(c23)C(=O)N1CCCSc1nnc(-c2ccncc2)n1-c1ccccc1 [CBK268684]	136.933
CCc1csc(C(=Cc2cccs2)C(N)=O)n1 [CBK001007]	122.458
Cc1cc(C)n(CC(O)CN(c2ccccc2)S(=O)(=O)c2ccccc2)n1 (stereo not shown) [CBK264469]	113.578
O=C(Cc1nnn[nH]1)N1CCCC2(CCN(C(=O)c3ccoc3)C2)C1 (stereo not shown) [CBK137077]	108.574
CCCCOc1ccc(-c2cn(CC(N)=O)cn2)cc1 [CBK009035]	92.4245
C/C(=N\Nc1nc(-c2ccccc2)cs1)c1ccccc1 [CBK262104]	93.4715
CCCC(C)N(C)C(=O)CCc1c(C)nc(-c2cccnc2)[nH]c1=O (stereo not shown) [CBK304965]	90.5234
CN(C)c1ccc(Nc2cc(-c3cccc4ccccc34)ncn2)cc1 [CBK037835]	176.854
O=S(=O)(NCC1(c2ccccc2)CCCC1)c1cccnc1 [CBK282762]	110.207
Cc1nc(-c2ccc(NC(=O)C3CC=CCC3C(=O)O)cc2)cs1 (stereo not shown) [CBK299815]	131.986
COc1cccc(OC)c1OCCNC1CCc2cc(Cl)ccc2C1 (stereo not shown) [CBK013079C]	123.091
CC1CCCCN1C(=O)CCn1c(C(F)F)cc2cccnc21 (stereo not shown) [CBK285024]	128.386
N#Cc1c(NC(=O)Cn2cnc3sc(-c4ccccc4)cc3c2=O)sc2c1CCC2 [CBK268053]	129.116
COc1cc(F)ccc1-c1nc2ncccc2cc1NS(C)(=O)=O [CBK085692]	110.355
CCNC(=O)N1CC(C)N(CCCC(c2ccc(F)cc2)c2ccc(F)cc2)CC1C (stereo not shown) [CBK024912C]	95.5677

In another format: two of the compounds above.
SMILES,% of control remaining [%]
O=C(Cc1nnn[nH]1)N1CCCC2(CCN(C(=O)c3ccoc3)C2)C1 (stereo not shown) [CBK137077],108.574
CCCCOc1ccc(-c2cn(CC(N)=O)cn2)cc1 [CBK009035],92.4245
